Test results taken from patent US9422308B2, “Derivatives of docosahexaenoylethanolamide and uses thereof” (The United States of America, as represented by the …, priority 2012, dated 2016).
Where “and” joins values, the source holds several entries; their conditions need not be identical. Equal values may be shown once. At least one read-out could not be matched to a standard name with certainty. Some entries share one result that the patent states for a list of compounds. At least one structure is not confirmed: it was looked up by name or label, or the drawing left a doubt.

Test system: cortical neurons
Test: neurite growth of embryonic mouse neurons (total neurite length/neuron, MAP2 immunostaining)
Assay type: cell-based
Conditions: for effect on relative neurite length as compared to synaptamide: FIG. 3, relative to untreated controls; for Neurite Length/Neuron, individual values: cortical neurons, 10 nM (FIG. 2), 48 h, three individual values
Experimental: To obtain embryonic mouse neurons for analysis, pregnant female mice were killed by cervical dislocation after exposure to CO2 inhalation. Embryonic neurons were prepared from E18 or P0 mouse hippocampi or cortex and cultured as described previously (Calderon and Kim, J. Neurochem., 90(4):979-88 (2004), errata in J Neurochem., September; 90(6):1540 (2004)), with slight modification. Briefly, hippocampi or cotices were dissected and dissociated by a method using either 0.25% trypsin (Gibco Invitrogen Corporation, Grand Island, N.Y.) in Hank's balanced salt solution (HBSS) or papain (20-30 U/mL) in dissociation media containing cysteine at 37° C. for 15 min. After the dissociation solution was aspirated off, cells were washed with same volume of HBSS, suspended in neurobasal medium (Gibco) containing 2% B27 supplement (Gibco), 1% glutamine/glutamax mix (1:4) (Gibco), 100 U/ml penicillin (Gibco) and 100 μg/ml streptomycin (Gibco), and seeded on poly-D-lysine chambered slides (Lab-Tek, Naperville, Ill.) at a density of 30,000 cells/cm^2. On the second day after seeding, the cells were treated with fatty acids, synaptamide or one of Compounds 1-50 for 48 h. Docosahexaenoic acid (DHA) and oleic acid (OA) were complexed with fatty acid-free bovine serum albumin (BSA; Sigma, St Louis, Mo.) in the presence of α-tocopherol (Sigma) under an argon atmosphere and darkness to prevent oxidation of the fatty acids. The mixture was mixed with fresh Neurobasal medium containing B27 supplement, glutamine/glutamax mix and antibiotics. Final concentrations of α-tocopherol and BSA in the culture medium were 40 μM and 0.01%, respectively. Alternatively, DHA, OA, synaptamide, or one of Compounds 1-50 were dissolved in DMSO and applied directly together with α-tocopherol. In such case, the final concentration of DMSO is less than 0.005%. All stock solutions were aliquoted under argon and stored at −70° C.
Cells were fixed with […] (Sigma) in PBS (pH 7.4) for 30 min. After permeabilization with 0.1% Triton X-100 (Sigma), cells were blocked for 1 h at 37° C. with PBS containing 10% goat serum (Gibco), and then incubated with the primary antibody against microtubule-associated protein (MAP2, mouse monoclonal 1:250; Sigma). After washing with PBS, cells were incubated with the corresponding Cy2-, Cy3-conjugated secondary antibody (Jackson Immunoresearch Laboratories Inc., West Grove, Pa.). For the nuclear staining, 0.06% 4,6-Diamidino-2-Phenylindole (Sigma) was used. After immunostaining, images were collected using an inverted motorized 1×81 Olympus (Melville, N.Y.) and the neurite length was analyzed with Metamorph software (Molecular Devices Corporation, Downingtown, Pa.). To minimize bias, neurons were evaluated blindly without the knowledge of sample identity. Four to six fields/well were chosen at random and only non-clustered neurons were evaluated to ensure the precision of the measurements. From each well, over 100 neurons were evaluated at 20× magnification for total neurite length/neuron. The data were obtained from triplicate wells and the experiments were repeated at least three times.
FIG. 2 provides graphical results of the data shown in Table 2, expressed as total neurite length per neuron. FIG. 3 provides graphical results of these experiments for compounds 11-50 (having designations as provided in Table 1, above), expressed as relative neurite length as compared to untreated controls. FIG. 4 provides graphical results of these experiments for compounds 1-10 (having designations as provided in Table 1, above), as applied to hippocampal neurons.
An additional assay was performed in which Compounds (A8), 4(A10), and 7(A9) were applied at varying dosages (from 10^−5 nM to 10 nM; 10^−5 nM, 10^−4 nM, 10^−2 nM, 0.1 nM, 1 nM, and 10 nM) as compared to DHA, synaptamide, and oleic acid. Neurite growth was measured at each dosage. Results of this assay are provided at FIG. 1.

CC/C=C\C/C=C\C/C=C\C/C=C\C/C=C\C/C=C\CCC(=O)NCC(C)(C)C [Compound 18, (4Z,7Z,10Z,13Z,16Z,19Z)—N-neopentyldocosa-4,7,10,13,16,19-hexaenamide]
effect on relative neurite length as compared to synaptamide: comparable or superior effect

CC/C=C\C/C=C\C/C=C\C/C=C\C/C=C\C/C=C\CCC(=O)NCCc1ccccc1 [Compound 7, (4Z,7Z,10Z,13Z,16Z,19Z)—N-phenethyldocosa-4,7,10,13,16,19-hexaenamide]
Neurite Length/Neuron, individual values (listed as A9): 30.1 μm and 56.3 μm and 38.9 μm

CC/C=C\C/C=C\C/C=C\C/C=C\C/C=C\C/C=C\CCC(=O)NCCN1CCCCC1 [Compound 45, (4Z,7Z,10Z,13Z,16Z,19Z)—N-(2-(piperidin-1-yl)ethyl)docosa-4,7,10,13,16,19-hexaenamide]
effect on relative neurite length as compared to synaptamide: comparable or superior effect

CC/C=C\C/C=C\C/C=C\C/C=C\C/C=C\C/C=C\CCC(=O)NCCc1ccc(F)cc1 [Compound 22, (4Z,7Z,10Z,13Z,16Z,19Z)—N-(4-fluorophenethyl)docosa-4,7,10,13,16,19-hexaenamide]
effect on relative neurite length as compared to synaptamide: comparable or superior effect

CC/C=C\C/C=C\C/C=C\C/C=C\C/C=C\C/C=C\CCC(=O)NC(C)(C)CO [Compound 8, (4Z,7Z,10Z,13Z,16Z,19Z)—N-(1-hydroxy-2-methylpropan-2-yl)docosa-4,7,10,13,16,19-hexaenamide]
Neurite Length/Neuron, individual values (listed as A6): 3.6 μm and 4.6 μm and 5.4 μm

CC/C=C\C/C=C\C/C=C\C/C=C\C/C=C\C/C=C\CCC(=O)NC[C@H]1COc2ccccc2O1 [Compound 11, (4Z,7Z,10Z,13Z,16Z,19Z)—N—(((S)-2,3-dihydrobenzo[b][1,4]dioxin-2-yl)methyl)docosa-4,7,10,13,16,19-hexaenamide]
effect on relative neurite length as compared to synaptamide: comparable or superior effect

CC/C=C\C/C=C\C/C=C\C/C=C\C/C=C\C/C=C\CCC(=O)NCc1ccc(N2CCOCC2)cc1 [Compound 19, (4Z,7Z,10Z,13Z,16Z,19Z)—N-(4-morpholinobenzyl)docosa-4,7,10,13,16,19-hexaenamide]
effect on relative neurite length as compared to synaptamide: comparable or superior effect

CC/C=C\C/C=C\C/C=C\C/C=C\C/C=C\C/C=C\CCC(=O)NCCc1cccnc1 [Compound 34, (4Z,7Z,10Z,13Z,16Z,19Z)—N-(2-(pyridin-3-yl)ethyl)docosa-4,7,10,13,16,19-hexaenamide]
effect on relative neurite length as compared to synaptamide: comparable or superior effect

C#CCNC(=O)CC/C=C\C/C=C\C/C=C\C/C=C\C/C=C\C/C=C\CC [Compound 30, (4Z,7Z,10Z,13Z,16Z,19Z)—N-(prop-2-ynyl)docosa-4,7,10,13,16,19-hexaenamide]
effect on relative neurite length as compared to synaptamide: comparable or superior effect

CC/C=C\C/C=C\C/C=C\C/C=C\C/C=C\C/C=C\CCC(=O)N1CC(N2CCOCC2)C1 [Compound 13, (4Z,7Z,10Z,13Z,16Z,19Z)-1-(3-morpholinoazetidin-1-yl)docosa-4,7,10,13,16,19-hexaen-1-one]
effect on relative neurite length as compared to synaptamide: comparable or superior effect

CC/C=C\C/C=C\C/C=C\C/C=C\C/C=C\C/C=C\CCC(=O)NCC(=O)O [Compound 31, 2-(4Z,7Z,10Z,13Z,16Z,19Z)-docosa-4,7,10,13,16,19-hexaenamidoacetic acid]
effect on relative neurite length as compared to synaptamide: comparable or superior effect

CC/C=C\C/C=C\C/C=C\C/C=C\C/C=C\C/C=C\CCC(=O)NCCOC [Compound 6, (4Z,7Z,10Z,13Z,16Z,19Z)—N-(2-methoxyethyl)docosa-4,7,10,13,16,19-hexaenamide]
Neurite Length/Neuron, individual values (listed as A1): 10.9 μm and 9.5 μm and 6.8 μm

CC/C=C\C/C=C\C/C=C\C/C=C\C/C=C\C/C=C\CCC(=O)NC1CCC1 [Compound 12, (4Z,7Z,10Z,13Z,16Z,19Z)—N-cyclobutyldocosa-4,7,10,13,16,19-hexaenamide]
effect on relative neurite length as compared to synaptamide: comparable or superior effect

CC/C=C\C/C=C\C/C=C\C/C=C\C/C=C\C/C=C\CCC(=O)NCC(=O)c1ccccc1 [Compound 38, (4Z,7Z,10Z,13Z,16Z,19Z)—N-(2-oxo-2-phenylethyl)docosa-4,7,10,13,16,19-hexaenamide]
effect on relative neurite length as compared to synaptamide: comparable or superior effect

CC/C=C\C/C=C\C/C=C\C/C=C\C/C=C\C/C=C\CCC(=O)N[C@H](C)CO [Compound 10, (4Z,7Z,10Z,13Z,16Z,19Z)—N—((R)-1-hydroxypropan-2-yl)docosa-4,7,10,13,16,19-hexaenamide]
Neurite Length/Neuron, individual values (listed as A3): 14.2 μm and 5.8 μm and 8.5 μm

CC/C=C\C/C=C\C/C=C\C/C=C\C/C=C\C/C=C\CCC(=O)NCCc1ccc(C)cc1 [Compound 26, (4Z,7Z,10Z,13Z,16Z,19Z)—N-(4-methylphenethyl)docosa-4,7,10,13,16,19-hexaenamide]
effect on relative neurite length as compared to synaptamide: comparable or superior effect

CC/C=C\C/C=C\C/C=C\C/C=C\C/C=C\C/C=C\CCC(=O)NCCN(C(C)C)C(C)C [Compound 40, (4Z,7Z,10Z,13Z,16Z,19Z)—N-(2-(diisopropylamino)ethyl)docosa-4,7,10,13,16,19-hexaenamide]
effect on relative neurite length as compared to synaptamide: comparable or superior effect

CC/C=C\C/C=C\C/C=C\C/C=C\C/C=C\C/C=C\CCC(=O)NCCCN1CCOCC1 [Compound 23, (4Z,7Z,10Z,13Z,16Z,19Z)—N-(3-morpholinopropyl)docosa-4,7,10,13,16,19-hexaenamide]
effect on relative neurite length as compared to synaptamide: comparable or superior effect

CC/C=C\C/C=C\C/C=C\C/C=C\C/C=C\C/C=C\CCC(=O)NCC1CCCCC1 [Compound 15, (4Z,7Z,10Z,13Z,16Z,19Z)—N-(cyclohexylmethyl)docosa-4,7,10,13,16,19-hexaenamide]
effect on relative neurite length as compared to synaptamide: comparable or superior effect

CC/C=C\C/C=C\C/C=C\C/C=C\C/C=C\C/C=C\CCC(=O)NCCc1ccccc1Cl [Compound 35, (4Z,7Z,10Z,13Z,16Z,19Z)—N-(2-chlorophenethyl)docosa-4,7,10,13,16,19-hexaenamide]
effect on relative neurite length as compared to synaptamide: comparable or superior effect

CC/C=C\C/C=C\C/C=C\C/C=C\C/C=C\C/C=C\CCC(=O)NCCc1nc2ccccc2[nH]1 [Compound 49, (4Z,7Z,10Z,13Z,16Z,19Z)—N-(2-(1H-benzo[d]imidazol-2-yl)ethyl)docosa-4,7,10,13,16,19-hexaenamide]
effect on relative neurite length as compared to synaptamide: comparable or superior effect

CC/C=C\C/C=C\C/C=C\C/C=C\C/C=C\C/C=C\CCC(=O)NCCNC(=O)CCCC[C@@H]1SC[C@@H]2NC(=O)N[C@@H]21 [Compound 17, (4Z,7Z,10Z,13Z,16Z,19Z)—N-(2-(5-((3aS,4S,6aR)-2-oxohexahydro-1H-thieno[3,4-d]imidazol-4-yl)pentanamido)ethyl)docosa-4,7,10,13,16,19-hexaenamide]
effect on relative neurite length as compared to synaptamide: comparable or superior effect

CC/C=C\C/C=C\C/C=C\C/C=C\C/C=C\C/C=C\CCC(=O)NCCc1cccs1 [Compound 43, (4Z,7Z,10Z,13Z,16Z,19Z)—N-(2-(thiophen-2-yl)ethyl)docosa-4,7,10,13,16,19-hexaenamide]
effect on relative neurite length as compared to synaptamide: comparable or superior effect
